The text below walks through data of PubChem BioAssay AID2685 (National Center for Advancing Translational Sciences (NCATS), 2010).

Each structure is given as a SMILES string. Some of the results follow. The main result of the screen is listed elsewhere. These columns were measured beside it and carry no call. The list favours compounds with an active or inconclusive main result. Words in brackets tell the shape of the fitted curve; partial curves, single points and poor fits give uncertain potencies.

A short description of this assay: qHTS Assay for Lipid Storage Modulators in Drosophila S3 Cells.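 As to cell number change: cells counted by Cell Tracker Red CMTPX staining in the red channel.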 The settings on record: BODIPY lipid droplet fluorescence, 18-24 h; for cell number change: measured here: cell count max response, cells fed with added oleic acid. In outline:
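Drosophila S3 cells loaded with oleic acid (400 uM, as added) and compounds at several concentrations; lipid droplets imaged by 488-nm laser-scanning cytometry, 500–530 nm intensity and object ratio to cell channel. Percent activity normalized to 20 uM Triacsin C.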

The mark [1] stands for this setting: measured here: lipid fluorescence (Fed channel) AC50, cells fed with added oleic acid.
Where [2] appears, read: measured here: cell number channel AC50, cells fed with added oleic acid.

Regarding `Cc1ccc(C(=O)COC(=O)CNC(=O)c2cccs2)cc1C`, the cell number change is 14.2%. In addition, under setting [1], the concentration at half-maximal activity (AC50) (as a rule, the concentration giving half of the maximal activity seen) was 23.1 µM [rising, single point].

As for `Cc1ccc(CSc2ccc(S(=O)(=O)N3CCOCC3)cn2)cc1`, the cell number change was -32%. Also, under setting [2], the concentration at half-maximal activity (AC50) is 29.1 µM [falling, single point]. In addition, the AC50 under setting [1] was 6.51 µM [rising, single point]. For the compound `Cc1nc(S/C(=C\c2ccc(OCc3ccccc3Cl)cc2)C(=O)O)n[nH]1`, the cell number change was -6.32%. Take `O=C(Nc1ccc(Cl)cc1)/C(=C/c1ccc([N+](=O)[O-])cc1)c1nc2ccccc2s1`: the cell number change is -62.1%. In addition, the AC50 under setting [1] was 14.1 µM [falling, partial curve].

Regarding `O=C1CN(c2ccc(Cl)cc2)C(=O)CN1NC(=S)Nc1ccc(Cl)cc1`, the cell number change was -16%.

As for `COc1ccc(S(=O)(=O)NCCc2c(C)nn(C)c2Oc2ccccc2)cc1`, the cell number change came to 85.7%. Under setting [2], the AC50 was 29.1 µM [rising, single point]. Besides, the AC50 under setting [1] was 3.66 µM [falling, partial curve]. For the compound `O=C(Nc1ccn(-c2ccccc2)n1)c1ccc(Cl)cc1`, the cell number change was 12.9%. The AC50 under setting [1] is 7.31 µM [rising, partial curve, poor fit]. Consider `N#CC1=C(N)OC2=C(C(=O)CCC2)[C@]12C(=O)N(CC(N)=O)c1ccccc12`, for which the cell number change is -20.1%.

`Cc1ccc(N2C(=O)C3C(C2=O)N2C(c4cccs4)C4C(=O)N(c5ccc(C)cc5)C(=O)C4N2C3c2cccs2)cc1` (stereo not given): the cell number change is 12.9%. Also, under setting [1], the AC50 was 4.61 µM [falling, single point]. Take `Cc1cc(S(=O)(=O)NCC(=O)O)ccc1F`: the cell number change is -28.7%. Moreover, under setting [1], the AC50 was 23.1 µM [falling, partial curve].

`O=C(Cc1cccs1)N(Cc1ccco1)C1(C(=O)NC2CCCC2)CCCCC1`: the AC50 under setting [1] was 1.64 µM [falling, partial curve, poor fit]. `O=C(Nc1cccc(Cl)c1)OCc1cncs1`: the cell number change is 7.91%. Also, under setting [1], the AC50 is 0.103 µM [rising, full curve, poor fit]. As for `c1ccc(C2C/C(=N\N3CCOCC3)c3ccccc3O2)cc1` (stereo not given), the cell number change was 31.4%. Also, the AC50 under setting [2] is 2.91 µM [rising, partial curve]. Moreover, the AC50 under setting [1] was 3.26 µM [rising, full curve]. With `NC(=O)COc1ccc2oc(=O)cc(-c3cc4ccccc4o3)c2c1`, the cell number change is -5.93%.

With `Cc1cc(C(C)c2ccccc2)c(O)c(CN2CCOCC2)c1C` (stereo not given), the cell number change is -23.9%. Besides, under setting [1], the AC50 is 5.17 µM [falling, full curve, poor fit]. With `O=C(CNC(=O)c1cccs1)NCCc1ccco1`, the cell number change was found to be 7.95%. For the same compound, the AC50 under setting [1] was 4.11 µM [rising, full curve, poor fit]. Turning to `COc1cccc(-n2c(SC)nnc2-c2c[nH]c3ccccc23)c1`, under setting [1], the AC50 was 0.103 µM [rising, single point]. Consider `Cc1nn(Cc2c(Cl)cccc2Cl)c(Cl)c1/C=C/C(=O)OCC(=O)NCC(F)(F)F`, for which the cell number change was -21.3%. For the same compound, under setting [1], the AC50 was 23.1 µM [falling, single point]. `COc1ccc(NC(=O)CSc2ccccn2)c([N+](=O)[O-])c1`: the AC50 under setting [2] is 0.92 µM [falling, full curve] and the AC50 under setting [1] is 0.82 µM [falling, full curve]. For the compound `Cc1cc(C)nc(N(C#N)Cc2ccc(Cl)cc2)n1`, the cell number change came to 8.59%. For the same compound, the concentration at half-maximal activity (AC50) under setting [1] was 0.92 µM [rising, partial curve]. As to `COc1ccc(CCNS(=O)(=O)c2ccccc2)cc1OC`, the cell number change is 3.35%. Consider `CCCCc1nnc(SCC(=O)NC2CCCCC2)n1C`, for which the cell number change was -13.6%. On the same count and under the same terms, the figure for `COc1ccc([C@H]2CC(=O)C=C(c3cc(C(F)(F)F)cc(C(F)(F)F)c3)C2)cc1` is -15.8%. With `CCOC(=O)Nc1ccc(C)cc1Br`, the cell number change amounted to 147%. Besides, under setting [2], the AC50 is 29.1 µM [rising, partial curve, poor fit]. `CCOC(=O)c1c(C)[nH]c(C(=O)CSc2nccc(C)n2)c1C`: the cell number change was determined as 49.5%. Besides, the AC50 under setting [2] is 0.00411 µM [rising, full curve, poor fit]. Further, the AC50 under setting [1] is 29.1 µM [rising, partial curve]. For the compound `C=C(C)Cn1c(SCC(=O)O)nnc1-c1ccc(C(C)(C)C)cc1`, the concentration at half-maximal activity (AC50) under setting [1] was 1.84 µM [falling, partial curve, poor fit]. With `CC(C(=O)N1CCc2ccccc21)N1CCN(Cc2ccccc2)CC1` (stereo not given), the cell number change is -11.1%. The AC50 under setting [1] was 0.58 µM [falling, single point]. In the case of `CCC1(C)Cc2c(sc3c2c(=O)n(C)c2nnc(SCc4ccc5c(c4)OCO5)n32)CO1` (stereo not given), the cell number change is -4.04%. The AC50 under setting [2] was 0.58 µM [rising, full curve]. The AC50 under setting [1] is 16.4 µM [rising, single point]. In the case of `COc1ccc(S(=O)(=O)N2CCc3ccccc3C2)cc1C(=O)O`, the cell number change turned out to be 1.39%. With `COc1ccc(NS(=O)(=O)c2cccc(C(=O)NNC(=O)COc3ccccc3)c2)cc1`, the cell number change was -48%. Besides, the AC50 under setting [2] was 0.231 µM [falling, full curve]. Further, the half-maximal activity concentration (AC50) under setting [1] was 0.116 µM [falling, full curve, poor fit].

Regarding `COC(=O)c1ccccc1NC(=O)C1CCN(C(=O)c2cc(OC)cc(OC)c2)CC1`, the cell number change is 43.8%. Besides, the AC50 under setting [2] was 0.651 µM [rising, full curve]. On to `N#C/C=C1\n2c(nc3ccccc32)OC12CCCCC2`, for which the cell number change was determined as 4.26%. The AC50 under setting [1] is 0.103 µM [rising, full curve, poor fit].

Regarding `CCOc1ccccc1NC(=O)C1CCCN1C(=O)OCc1ccccc1` (stereo not given), the cell number change is -13%. For the same compound, the AC50 under setting [1] was 2.59 µM [rising, full curve]. Regarding `Fc1ccc(N2CCN(Cc3cnc(N4CCOCC4)s3)CC2)cc1`, the cell number change was 27.1%. In addition, the AC50 under setting [1] was 0.651 µM [rising, full curve]. As to `O=C(N1CCOCC1)N1CCOCC1`, the cell number change stood at 0.685%. Regarding `Cc1ccc(C(=O)NCC(c2cccs2)N(C)C)cc1S(=O)(=O)N1CCOCC1` (stereo not given), the cell number change is -28.4%. For the same compound, the AC50 under setting [1] is 18.4 µM [falling, single point]. For the compound `COCCn1c(SCC(=O)NC2CCCCC2C)nc2ccccc2c1=O` (stereo not given), the cell number change amounted to 14.8%. Besides, the AC50 under setting [1] is 29.1 µM [falling, single point]. Regarding `O=c1cc(CO)oc(C(Nc2ccccn2)c2ccc(F)cc2)c1O` (stereo not given), the cell number change was -89.1%. The AC50 under setting [2] was 16.4 µM [falling, partial curve]. In addition, under setting [1], the AC50 is 18.4 µM [falling, partial curve]. For the compound `COc1cccc(C(C(=O)NC2CCCC2)N(C(=O)c2ccco2)c2ccccc2F)c1OC` (stereo not given), the cell number change is -6.58%. For `CCC(=O)N(Cc1cc(=O)[nH]c2ccccc12)c1ccc(OC)cc1`, the cell number change was determined as 12.5%. Also, the AC50 under setting [2] is 0.291 µM [rising, full curve, poor fit]. The AC50 under setting [1] was 29.1 µM [rising, single point].
